Taken from: PubChem BioAssay AID1259308 (NCATS, 2017)

Aim: 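Genes whose loss raises luciferase production in HEK293 cells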 (primary screen)
Cell system: human HEK293 embryonic kidney cells stably expressing firefly luciferase (HEK-CMV-Luc2-Hygro)
Reagent: single siRNA against human genes, 0.8 pmol siRNA per well
Timing: 72 h
Detection: 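Luciferase light (ONE-Glo) measured on one replicate plate set and viability (CellTiter-Glo) on the other, scaled to a negative control siRNA, with robust z-scores and luciferase per cell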
Scale: total luciferase, z-score and total luciferase, % of control: higher = more reporter protein produced; luciferase per cell, z-score: higher = more reporter output per viable cell; viable cells, % of control: higher = more viable cells
Rule for the call: 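An siRNA counts as active if its total luciferase robust z-score exceeds 3; genes with two or more such siRNAs out of three were retested with fresh siRNAs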
Calls: active = raised luciferase; inactive = no rise
The deposit covers about 59,000 reagents; shown is an unselected part. About 1,510 of them (2.6%) were called active. 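Calls use total luciferase alone and ignore viability, so some active siRNAs may act by altering cell number.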 Unmarked entries are inactive. The numbers tell different reagents against one gene apart.

target	reagent no.	total luciferase, z-score	total luciferase, % of control	luciferase per cell, z-score	viable cells, % of control
RPS16P10	1	-0.234	77.2	0.245	80.9
RPS16P10	2	-1.05	60.9	-0.445	76.6
RPS16P10	3	-0.979	62.4	-0.909	88.6
EXOC1	1	0.226	86.4	-0.247	103
EXOC1	2	-0.121	79.5	0.779	72.3
EXOC1	3	0.591	93.6	0.71	86.8
IGFBP3	1	0.834	98.5	0.431	98.2
IGFBP3	2	0.398	89.8	0.409	90.1
IGFBP3	3	-0.0601	80.7	0.0831	88.2
LCLAT1	1	-1.08	60.4	0.00942	67.3
LCLAT1	2	-0.127	79.4	0.378	80.3
LCLAT1	3	-1.63	49.5	-1.1	73.8
ROMO1	1	2.61	134	3.26	63.4
ROMO1	2	3.85 (active)	159	2.13	101
ROMO1	3	-1.72	47.6	-1.9	87.6
NEGR1	1	-2.1	40.2	-2.74	92.4
NEGR1	2	-2.96	23	-1.17	35
NEGR1	3	-0.402	73.9	-0.174	86.4
RASGEF1A	1	0.675	95.3	0.493	93.5
RASGEF1A	2	-0.634	69.3	-0.596	90.6
RASGEF1A	3	0.248	86.8	0.0518	95.7
PTPRS	1	0.971	101	0.648	95.3
PTPRS	2	0.582	93.5	-0.000855	104
PTPRS	3	-0.577	70.4	-1.33	112

Next part, starting with the last 3 of the part before.
target	reagent no.	total luciferase, z-score	total luciferase, % of control	luciferase per cell, z-score	viable cells, % of control
PTPRS	1	0.971	101	0.648	95.3
PTPRS	2	0.582	93.5	-0.000855	104
PTPRS	3	-0.577	70.4	-1.33	112
ZNF354C	1	0.376	89.4	0.15	96
ZNF354C	2	1.23	106	1.34	83.5
ZNF354C	3	-0.0906	80.1	0.724	74
VRK2	1	-0.324	75.4	-0.841	105
VRK2	2	0.214	86.1	0.689	80.3
VRK2	3	-0.79	66.2	-0.64	87.5
CHMP3	1	1.31	108	0.52	105
CHMP3	2	-0.551	70.9	-0.592	92.6
CHMP3	3	-0.719	67.6	-0.516	86.5
PTPRO	1	-1.69	48.3	-1.22	74.3
PTPRO	2	-0.000662	81.9	-0.0697	93.2
PTPRO	3	0.0938	83.8	-0.093	95.9
TTC31	1	-0.465	72.6	-1.37	117
TTC31	2	-0.715	67.7	-0.643	89.5
TTC31	3	0.577	93.4	-0.513	119
